For 19 molecules, binding results are on record in article PMC3707915.

Chains of the proteins cited; added tags and fusions are not shown. Lines headed by an entry give the natural chain unless they say otherwise; changes in a name come on top.
UniProt P04456: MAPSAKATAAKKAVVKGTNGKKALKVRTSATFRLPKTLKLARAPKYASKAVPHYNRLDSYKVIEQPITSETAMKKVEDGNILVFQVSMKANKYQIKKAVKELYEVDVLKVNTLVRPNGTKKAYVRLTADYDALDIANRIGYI
UniProt P02406: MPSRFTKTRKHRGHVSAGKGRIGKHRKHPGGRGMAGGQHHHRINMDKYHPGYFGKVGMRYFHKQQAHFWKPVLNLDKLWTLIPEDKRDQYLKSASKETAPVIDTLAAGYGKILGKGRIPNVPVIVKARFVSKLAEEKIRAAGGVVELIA
UniProt P0C2H8: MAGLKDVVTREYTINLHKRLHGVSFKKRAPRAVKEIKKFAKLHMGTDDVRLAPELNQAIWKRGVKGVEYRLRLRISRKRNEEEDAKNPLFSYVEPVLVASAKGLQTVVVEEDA
UniProt P53742: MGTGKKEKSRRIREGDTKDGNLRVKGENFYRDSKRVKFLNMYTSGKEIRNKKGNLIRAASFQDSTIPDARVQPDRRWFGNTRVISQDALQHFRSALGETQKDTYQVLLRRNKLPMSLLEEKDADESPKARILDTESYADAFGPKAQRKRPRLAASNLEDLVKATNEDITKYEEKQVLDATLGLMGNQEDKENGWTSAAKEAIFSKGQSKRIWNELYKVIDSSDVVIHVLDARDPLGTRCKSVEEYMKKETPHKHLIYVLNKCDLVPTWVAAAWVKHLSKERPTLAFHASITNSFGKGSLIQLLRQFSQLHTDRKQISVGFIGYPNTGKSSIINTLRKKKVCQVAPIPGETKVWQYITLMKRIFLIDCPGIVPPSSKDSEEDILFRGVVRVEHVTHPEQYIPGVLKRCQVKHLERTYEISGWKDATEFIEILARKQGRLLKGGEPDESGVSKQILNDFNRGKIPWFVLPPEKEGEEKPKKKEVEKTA
UniProt P0CX82: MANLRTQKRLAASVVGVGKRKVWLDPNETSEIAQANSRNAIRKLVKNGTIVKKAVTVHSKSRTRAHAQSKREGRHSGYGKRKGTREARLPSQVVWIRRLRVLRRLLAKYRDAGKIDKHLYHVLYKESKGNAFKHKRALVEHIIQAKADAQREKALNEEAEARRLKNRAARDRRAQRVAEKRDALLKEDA
UniProt P04650: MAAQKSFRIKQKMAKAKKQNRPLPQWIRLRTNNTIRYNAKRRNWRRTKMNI
UniProt P05738: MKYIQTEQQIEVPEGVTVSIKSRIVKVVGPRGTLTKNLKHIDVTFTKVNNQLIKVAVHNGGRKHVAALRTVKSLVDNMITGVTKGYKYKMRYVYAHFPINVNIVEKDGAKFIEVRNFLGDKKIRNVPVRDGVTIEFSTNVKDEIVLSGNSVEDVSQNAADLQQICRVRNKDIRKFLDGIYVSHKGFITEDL
UniProt P0C0W9: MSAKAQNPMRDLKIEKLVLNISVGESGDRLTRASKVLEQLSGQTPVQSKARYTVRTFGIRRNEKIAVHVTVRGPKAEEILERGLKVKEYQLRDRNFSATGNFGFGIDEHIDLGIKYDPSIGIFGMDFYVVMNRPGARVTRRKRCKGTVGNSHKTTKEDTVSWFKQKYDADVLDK

These are yes or no findings as the source states them, for the method shown. In cells and extracts the contact can be indirect. Here binding means that the protein was enriched with, or labelled near, the bait; the list need not be complete.

The labels stand for the following.
B1: Rsa4 (protein, UniProt P25382 1-515)
chain: MSTLIPPPSKKQKKEAQLPREVAIIPKDLPNVSIKFQALDTGDNVGGALRVPGAISEKQLEELLNQLNGTSDDPVPYTFSCTIQGKKASDPVKTIDITDNLYSSLIKPGYNSTEDQITLLYTPRAVFKVKPVTRSSSAIAGHGSTILCSAFAPHTSSRMVTGAGDNTARIWDCDTQTPMHTLKGHYNWVLCVSWSPDGEVIATGSMDNTIRLWDPKSGQCLGDALRGHSKWITSLSWEPIHLVKPGSKPRLASSSKDGTIKIWDTVSRVCQYTMSGHTNSVSCVKWGGQGLLYSGSHDRTVRVWDINSQGRCINILKSHAHWVNHLSLSTDYALRIGAFDHTGKKPSTPEEAQKKALENYEKICKKNGNSEEMMVTASDDYTMFLWNPLKSTKPIARMTGHQKLVNHVAFSPDGRYIVSASFDNSIKLWDGRDGKFISTFRGHVASVYQVAWSSDCRLLVSCSKDTTLKVWDVRTRKLSVDLPGHKDEVYTVDWSVDGKRVCSGGKDKMVRLWTH
B2: Nop15 (protein, UniProt P53927 1-220)
chain: MVKSTSKTSTKETVTKQPTEEKPIQEKEELALETSSSSSDEEDEKDEDEIEGLAASDDEQSGTHKIKRLNPKKQANEKKSKDKKTLEEYSGIIYVSRLPHGFHEKELSKYFAQFGDLKEVRLARNKKTGNSRHYGFLEFVNKEDAMIAQESMNNYLLMGHLLQVRVLPKGAKIEKLYKYKKRVLVEKGITKPVKQLKDNMKQKHEERIKKLAKSGIEFKW
B3: Rrs1 (protein, UniProt Q08746 1-203)
chain: MSAEDYKNLPVTVEKPIPVVYDLGNLAAFDSNVLDKNDLDSSNARREEKIKSLTRDNVQLLINQLLSLPMKTTTESVGGTGGQSSVMTLLQLPDPTTDLPREKPLPKAKAMTKWEKFAAKKGIKPKERAGKMIYDEASGEWVPKWGYKGANKKLDDQWLVEVDDKVKGTDNELIDPRTLNRAERKRLVKKNEKQQRRNMKNAL
B4: Ipi1 (protein, UniProt P38803 1-334)
chain: MTKSRKQKQKKQDFLRKKLKVGKPKEKARNATDTSFVSKTISIRNQHLDQNPHDLTKRLTLLKHHNINVRKETLTTFQKSIPSIIKSRLMTPLLTQSIPLICDESQQVRQGLIDLVDEIGSHDAEILKLHCNIFVLYINMAMTHIVTQIQADSTKFLSHLLKYCGDEVVRKSWVKLLNGVFGVLGWGQVGKNDSASIVQTKKRNAKYVTIHLNALYTLVEYGCQDERARSDGDTAETTEDSGTLRNPYLIPDYPQPFEHLKLFTRELKVQDATSSGVNATLLSLATQDIDTRKAVFIEQFLPIVRKKIEVIIKEGGECGKSANKLKTLLAKIFD
B5: Rpf2 (protein, UniProt P36160 1-344)
chain: MIRTVKPKNARAKRALVKREAKLVENVKQALFIPGQSCNKNLHDIMVDLSALKKPDMKRFNRKNDIHPFEDMSPLEFFSEKNDCSLMVLMTSSKKRKNNMTFIRTFGYKIYDMIELMVADNFKLLSDFKKLTFTVGLKPMFTFQGAAFDTHPVYKQIKSLFLDFFRGESTDLQDVAGLQHVISMTIQGDFQDGEPLPNVLFRVYKLKSYKSDQGGKRLPRIELVEIGPRLDFKIGRIHTPSPDMVTEAHKKPKQLEMKTKKNVELDIMGDKLGRIHMGKQDLGKLQTRKMKGLKSKFDQGTEEGDGEVDEDYEDEASYSDDGQEYEEEFVSATDIEPSAKRQKK
B6: Noc2 (protein, UniProt P39744 1-710)
chain: MGKVSKSTKKFQSKHLKHTLDQRRKEKIQKKRIQGRRGNKTDQEKADAAGTREQQQLKKSAKEEVFKDMSVETFFEKGIEIPKENKKLKKKTTKEQSDEDSSSSEEEEDMGQSMAKLAEKDPEFYKYLEENDKDLLDFAGTNPLDGIDSQDEGEDAERNSNIEEKSEQMELEKEKIELSLKLVRKWKKQLHDSPSLKLLRNIISAFKVAVNLNKEENIEDYKYAITDEKAFHELMFMVLKDVPQAIQKMAPYKIVKGARTLPNGGNVSRVSSIVKSHAGSLLILLNDITNTETAALVLHSVNELMPYLLSYRRILKELIKSIVGVWSTTRELETQIASFAFLINTTKEFKKSMLETTLKTTYSTFIKSCRKTNMRSMPLINFQKNSAAELFGIDEVLGYQVGFEYIRQLAIHLRNTMNATTKKSSKINSAEAYKIVYNWQFCHSLDFWSRVLSFACQPEKENGSESPLRQLIYPLVQVTLGVIRLIPTPQFFPLRFYLIKSLIRLSQNSGVFIPIYPLLSEILTSTAFTKAPKKSPNLAAFDFEHNIKCTQAYLNTKIYQEGLSEQFVDLLGDYFALYCKNIAFPELVTPVIISLRRYIKTSTNVKLNKRLSTVVEKLNQNSTFIQEKRSDVEFGPTNKSEVSRFLNDVAWNKTPLGSYVAVQREVKEEKARLMRESMEEQDKERETEEAKLLNSLESDDDNEDVEMSDA
B7: Nsa2 (protein, UniProt P40078 1-261)
chain: MPQNDYIERHIKQHGKRLDHEERKRKREARESHKISERAQKLTGWKGKQFAKKRYAEKVSMRKKIKAHEQSKVKGSSKPLDTDGDALPTYLLDREQNNTAKAISSSIKQKRLEKADKFSVPLPKVRGISEEEMFKVIKTGKSRSKSWKRMITKHTFVGEGFTRRPVKMERIIRPSALRQKKANVTHPELGVTVFLPILAVKKNPQSPMYTQLGVLTKGTIIEVNVSELGMVTAGGKVVWGKYAQVTNEPDRDGCVNAVLLV
B8: rpL35 (protein, UniProt P0CX84 1-120)
chain: MAGVKAYELRTKSKEQLASQLVDLKKELAELKVQKLSRPSLPKIKTVRKSIACVLTVINEQQREAVRQLYKGKKYQPKDLRAKKTRALRRALTKFEASQVTEKQRKKQIAFPQRKYAIKA
B9: rpP0 (protein, UniProt P05317 1-312)
chain: MGGIREKKAEYFAKLREYLEEYKSLFVVGVDNVSSQQMHEVRKELRGRAVVLMGKNTMVRRAIRGFLSDLPDFEKLLPFVKGNVGFVFTNEPLTEIKNVIVSNRVAAPARAGAVAPEDIWVRAVNTGMEPGKTSFFQALGVPTKIARGTIEIVSDVKVVDAGNKVGQSEASLLNLLNISPFTFGLTVVQVYDNGQVFPSSILDITDEELVSHFVSAVSTIASISLAIGYPTLPSVGHTLINNYKDLLAVAIAASYHYPEIEDLVDRIENPEKYAAAAPAATSAASGDAAPAEEAAAEEEEESDDDMGFGLFD

One test deals with T1, Nog1-TAP (S. cerevisiae) (UniProt Q02892).
T1 sequence: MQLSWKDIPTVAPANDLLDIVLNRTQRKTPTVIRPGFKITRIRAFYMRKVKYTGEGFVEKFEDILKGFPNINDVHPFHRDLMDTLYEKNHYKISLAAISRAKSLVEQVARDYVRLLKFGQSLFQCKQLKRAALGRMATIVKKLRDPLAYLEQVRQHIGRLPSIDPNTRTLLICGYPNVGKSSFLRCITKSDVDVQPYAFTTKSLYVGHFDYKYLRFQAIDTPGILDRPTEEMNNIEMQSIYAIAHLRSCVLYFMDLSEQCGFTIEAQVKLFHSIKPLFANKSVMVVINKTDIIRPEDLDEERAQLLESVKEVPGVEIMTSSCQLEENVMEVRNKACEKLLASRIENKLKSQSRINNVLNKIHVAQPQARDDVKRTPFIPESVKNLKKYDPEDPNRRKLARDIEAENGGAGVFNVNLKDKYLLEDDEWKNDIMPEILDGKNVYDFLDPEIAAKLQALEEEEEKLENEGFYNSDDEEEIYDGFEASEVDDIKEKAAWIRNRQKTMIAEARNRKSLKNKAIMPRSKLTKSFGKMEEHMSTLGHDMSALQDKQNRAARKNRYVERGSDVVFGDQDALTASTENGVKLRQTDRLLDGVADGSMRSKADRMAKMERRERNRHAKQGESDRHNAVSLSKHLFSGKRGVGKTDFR
Put plainly: affinity purification with mass spectrometry; TAP-tagged LSU biogenesis factor and associated pre-ribosomal particles purified in one step from total yeast cellular extract on rabbit IgG coupled magnetic beads, 1 h at 4°C, MB buffer (20 mM Tris HCl pH 8, 200 or 300 mM KCl, 5 mM MgOAc) with 0.5% Triton X-100 and 0.1% Tween 20; eluates compared pair wise by semi-quantitative LC-MS/MS with iTRAQ reagents; for Nog1-, Nog2- and Rsa4-TAP wild type against strains in which RPL25, RPL2, RPL43 or RPL21 was shut down for 4 h in glucose.
Regarding rpL25 (from UniProt P04456 1-142), the binding result was “binds”.
As to rpL28 (from UniProt P02406 1-149), the binding result is “binds”.
The same measure, in the same setting: the result for rpL31 (from UniProt P0C2H8) reads “binds”.
For the molecule Nog2 (from UniProt P53742 1-486), the binding result is reported as “binds”.
Turning to rpL2 (S. cerevisiae), the binding result was “binds”.
On to rpL43 (S. cerevisiae), for which the binding result is listed as “binds”.
rpL19 (from UniProt P0CX82 1-189): the binding entry is “binds”.
For the molecule rpL39 (from UniProt P04650 1-51), the binding result is “binds”.
Still for that read-out and setting: for rpL9 (from UniProt P05738) the value was “binds”; for rpL11 (from UniProt P0C0W9), “binds”.

The next test deals with Nog2-TAP (S. cerevisiae) (UniProt P53742). The description is as above.
For the molecule B1, the binding entry is listed as “binds”.
Take B2: the binding entry was “binds”.
Take B3: the binding entry is recorded as “binds”.
With B4, the binding entry was “binds”.
For the molecule B5, the binding result is “binds”.

In a further test the target is T1, Nog1-TAP (S. cerevisiae). Described as above. This is another data set of the same source.
In the case of B1, the binding result is “binds”.
The same measure, in the same setting: for B6 the value was “binds”; for B7, “binds”; for B8, “binds”.
Still for that read-out and setting: the result for B9 reads “binds”.
